# The other results are listed elsewhere or left out.
# Chains of the proteins cited; added tags and fusions are not shown. Lines headed by an entry give the natural chain unless they say otherwise; changes in a name come on top.
# UniProt Q9HAS0: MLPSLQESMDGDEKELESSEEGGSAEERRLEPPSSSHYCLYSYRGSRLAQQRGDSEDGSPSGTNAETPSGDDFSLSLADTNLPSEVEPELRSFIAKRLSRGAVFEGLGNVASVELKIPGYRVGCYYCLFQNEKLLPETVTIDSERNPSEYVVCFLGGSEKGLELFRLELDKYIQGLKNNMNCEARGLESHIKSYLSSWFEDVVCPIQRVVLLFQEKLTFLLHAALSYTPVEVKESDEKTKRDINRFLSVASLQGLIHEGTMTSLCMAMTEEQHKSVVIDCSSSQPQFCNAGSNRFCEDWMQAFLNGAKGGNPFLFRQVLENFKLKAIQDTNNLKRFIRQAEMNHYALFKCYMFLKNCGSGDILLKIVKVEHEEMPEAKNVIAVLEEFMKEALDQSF
# UniProt Q96RR4, whole entry, looked up: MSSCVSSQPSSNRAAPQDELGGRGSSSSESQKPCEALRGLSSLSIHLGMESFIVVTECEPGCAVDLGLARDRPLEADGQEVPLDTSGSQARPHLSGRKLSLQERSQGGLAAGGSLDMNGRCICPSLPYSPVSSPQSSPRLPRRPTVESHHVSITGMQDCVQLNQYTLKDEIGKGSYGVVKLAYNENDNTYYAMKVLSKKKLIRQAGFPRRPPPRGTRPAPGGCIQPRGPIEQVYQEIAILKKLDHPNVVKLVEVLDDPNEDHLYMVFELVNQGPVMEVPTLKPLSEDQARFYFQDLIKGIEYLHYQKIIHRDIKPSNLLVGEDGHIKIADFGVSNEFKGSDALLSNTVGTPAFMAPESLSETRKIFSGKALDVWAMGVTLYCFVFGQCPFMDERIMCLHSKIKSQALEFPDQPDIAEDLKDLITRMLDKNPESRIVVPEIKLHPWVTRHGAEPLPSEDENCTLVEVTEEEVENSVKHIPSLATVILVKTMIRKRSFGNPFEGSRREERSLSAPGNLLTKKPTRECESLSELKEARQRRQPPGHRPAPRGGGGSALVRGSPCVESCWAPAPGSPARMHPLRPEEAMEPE
# UniProt Q9BV19: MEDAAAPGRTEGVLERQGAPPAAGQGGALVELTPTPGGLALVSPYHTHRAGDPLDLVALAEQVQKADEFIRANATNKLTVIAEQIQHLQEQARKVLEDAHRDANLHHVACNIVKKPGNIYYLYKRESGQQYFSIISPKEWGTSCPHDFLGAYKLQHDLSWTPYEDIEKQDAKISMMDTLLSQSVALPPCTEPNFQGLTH
# UniProt P27797, whole entry, looked up: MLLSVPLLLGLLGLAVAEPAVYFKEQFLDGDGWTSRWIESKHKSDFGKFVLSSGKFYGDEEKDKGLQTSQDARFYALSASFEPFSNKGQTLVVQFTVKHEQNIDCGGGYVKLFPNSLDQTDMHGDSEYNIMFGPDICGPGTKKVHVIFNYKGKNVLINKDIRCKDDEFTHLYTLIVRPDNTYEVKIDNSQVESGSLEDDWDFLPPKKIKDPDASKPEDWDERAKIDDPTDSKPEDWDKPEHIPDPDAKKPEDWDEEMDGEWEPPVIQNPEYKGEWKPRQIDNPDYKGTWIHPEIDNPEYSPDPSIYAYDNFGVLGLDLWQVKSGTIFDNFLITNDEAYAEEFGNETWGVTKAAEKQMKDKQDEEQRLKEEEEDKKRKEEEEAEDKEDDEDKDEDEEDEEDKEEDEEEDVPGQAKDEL
# UniProt P00915: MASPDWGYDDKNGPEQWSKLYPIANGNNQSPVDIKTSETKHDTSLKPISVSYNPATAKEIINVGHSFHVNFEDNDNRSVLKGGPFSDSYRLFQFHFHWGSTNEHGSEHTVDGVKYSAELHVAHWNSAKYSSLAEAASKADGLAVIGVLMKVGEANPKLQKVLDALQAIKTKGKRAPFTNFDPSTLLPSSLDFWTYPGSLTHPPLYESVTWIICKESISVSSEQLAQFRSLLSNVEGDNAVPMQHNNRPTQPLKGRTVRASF
# UniProt O43709: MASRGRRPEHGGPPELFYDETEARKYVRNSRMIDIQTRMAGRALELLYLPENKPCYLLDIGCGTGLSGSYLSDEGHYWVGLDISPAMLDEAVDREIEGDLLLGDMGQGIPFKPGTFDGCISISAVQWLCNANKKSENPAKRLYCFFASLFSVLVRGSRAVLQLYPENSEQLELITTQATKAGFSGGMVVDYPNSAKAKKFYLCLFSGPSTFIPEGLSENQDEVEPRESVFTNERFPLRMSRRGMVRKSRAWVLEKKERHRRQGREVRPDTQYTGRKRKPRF
# UniProt Q96GQ5: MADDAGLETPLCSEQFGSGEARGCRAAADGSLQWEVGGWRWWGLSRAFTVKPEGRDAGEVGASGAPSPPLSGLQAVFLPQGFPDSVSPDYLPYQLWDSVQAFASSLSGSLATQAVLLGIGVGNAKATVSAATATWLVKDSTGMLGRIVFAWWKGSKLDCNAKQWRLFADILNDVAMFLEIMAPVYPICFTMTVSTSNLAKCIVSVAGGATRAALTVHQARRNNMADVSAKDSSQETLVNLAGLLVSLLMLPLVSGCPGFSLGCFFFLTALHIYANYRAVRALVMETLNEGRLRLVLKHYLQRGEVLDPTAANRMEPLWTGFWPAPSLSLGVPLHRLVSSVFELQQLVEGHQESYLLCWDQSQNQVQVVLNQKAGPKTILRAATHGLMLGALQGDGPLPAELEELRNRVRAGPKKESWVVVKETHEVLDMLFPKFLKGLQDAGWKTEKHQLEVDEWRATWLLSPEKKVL
# UniProt P05937: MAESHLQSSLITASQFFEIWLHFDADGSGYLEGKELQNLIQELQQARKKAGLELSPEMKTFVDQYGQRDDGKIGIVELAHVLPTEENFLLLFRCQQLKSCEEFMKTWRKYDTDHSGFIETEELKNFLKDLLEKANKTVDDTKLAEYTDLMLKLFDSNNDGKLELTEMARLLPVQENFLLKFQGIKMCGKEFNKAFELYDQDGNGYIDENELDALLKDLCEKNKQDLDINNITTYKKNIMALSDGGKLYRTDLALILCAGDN
# UniProt Q9BVC5: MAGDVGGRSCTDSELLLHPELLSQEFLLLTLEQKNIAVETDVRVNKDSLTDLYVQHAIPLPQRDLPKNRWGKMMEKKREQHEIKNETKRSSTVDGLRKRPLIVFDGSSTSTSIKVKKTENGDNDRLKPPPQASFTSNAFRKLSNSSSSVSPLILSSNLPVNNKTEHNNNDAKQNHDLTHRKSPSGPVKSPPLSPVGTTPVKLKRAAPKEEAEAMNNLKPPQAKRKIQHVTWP
# UniProt Q9H7E9: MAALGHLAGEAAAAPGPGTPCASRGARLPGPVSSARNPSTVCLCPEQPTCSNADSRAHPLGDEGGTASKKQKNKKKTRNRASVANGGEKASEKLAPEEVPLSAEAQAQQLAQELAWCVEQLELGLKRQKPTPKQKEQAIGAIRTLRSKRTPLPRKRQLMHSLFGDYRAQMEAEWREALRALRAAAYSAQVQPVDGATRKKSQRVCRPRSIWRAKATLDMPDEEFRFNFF
# UniProt Q8N8R5: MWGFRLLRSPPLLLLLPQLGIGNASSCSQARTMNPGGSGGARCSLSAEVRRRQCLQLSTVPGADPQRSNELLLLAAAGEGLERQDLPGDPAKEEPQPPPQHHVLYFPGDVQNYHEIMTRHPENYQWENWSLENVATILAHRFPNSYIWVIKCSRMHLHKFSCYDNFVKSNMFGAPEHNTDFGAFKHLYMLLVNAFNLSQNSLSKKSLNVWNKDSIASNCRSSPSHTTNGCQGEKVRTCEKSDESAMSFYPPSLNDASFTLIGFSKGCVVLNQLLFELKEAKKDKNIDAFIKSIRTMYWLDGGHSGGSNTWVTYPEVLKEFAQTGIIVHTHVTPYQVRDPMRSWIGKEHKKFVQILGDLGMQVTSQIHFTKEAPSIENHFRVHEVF
# UniProt O43852: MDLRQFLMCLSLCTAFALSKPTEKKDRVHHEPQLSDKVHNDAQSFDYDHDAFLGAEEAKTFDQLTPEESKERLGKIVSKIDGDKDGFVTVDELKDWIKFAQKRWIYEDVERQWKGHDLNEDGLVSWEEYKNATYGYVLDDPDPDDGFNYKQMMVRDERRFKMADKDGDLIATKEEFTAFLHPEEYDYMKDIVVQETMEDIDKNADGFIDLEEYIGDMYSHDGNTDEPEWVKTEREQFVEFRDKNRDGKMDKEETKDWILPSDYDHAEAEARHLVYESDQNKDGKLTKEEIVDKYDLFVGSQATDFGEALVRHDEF
# UniProt Q10589, whole entry, looked up: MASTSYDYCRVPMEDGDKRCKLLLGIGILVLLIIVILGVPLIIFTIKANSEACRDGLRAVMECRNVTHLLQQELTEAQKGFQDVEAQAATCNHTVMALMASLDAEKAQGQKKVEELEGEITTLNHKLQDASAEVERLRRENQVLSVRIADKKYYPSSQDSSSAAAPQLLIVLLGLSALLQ
# UniProt Q13555: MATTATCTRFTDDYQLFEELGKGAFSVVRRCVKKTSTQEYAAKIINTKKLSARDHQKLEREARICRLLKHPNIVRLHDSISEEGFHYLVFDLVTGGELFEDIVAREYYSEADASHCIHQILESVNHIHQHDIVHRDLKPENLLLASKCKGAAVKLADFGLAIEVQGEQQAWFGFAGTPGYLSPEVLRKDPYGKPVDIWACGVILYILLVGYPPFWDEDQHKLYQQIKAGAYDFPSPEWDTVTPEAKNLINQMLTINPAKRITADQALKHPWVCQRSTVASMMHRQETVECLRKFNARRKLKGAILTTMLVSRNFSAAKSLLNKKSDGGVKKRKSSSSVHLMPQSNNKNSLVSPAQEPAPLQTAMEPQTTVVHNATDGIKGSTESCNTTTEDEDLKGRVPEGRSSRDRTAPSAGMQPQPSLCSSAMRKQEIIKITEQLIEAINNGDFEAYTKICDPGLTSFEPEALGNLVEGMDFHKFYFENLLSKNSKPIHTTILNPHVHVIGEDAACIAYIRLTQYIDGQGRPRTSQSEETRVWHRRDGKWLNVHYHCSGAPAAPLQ
# How the values were obtained:
# Test in all cases: log2 fold change, soluble protein after heating vs DMSO (PISA); higher = thermal stabilisation; K562 cells, 10 uM, 30 min; active = over 0.2 and 3.5 SD of the protein, either way, in both replicates (recomputed)
# [1] = compound: Cc1ccc(NC(=O)c2ccc(CN3CC[C@H](N(C)C)C3)c(C(F)(F)F)c2)cc1Nc1nccc(-c2cncnc2)n1 [bafetinib]
# Summary of the method: (§1)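 K562 cells at 2×10^6 cells/mL were given 10 μM compound for 30 min. Aliquots then went through 3 min of heating across 48°C-58°C, were pooled, and were extracted in PBS with 0.5% NP-40 at 4°C, and the supernatant after 21,000xg for 90 min was quantified by TMTpro 16plex LC-MS/MS with channel sums equalised. Thermal stability relative to control samples, from duplicates, is given as log2 fold change.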
# [2] = compound: Cc1cccc(CC(=O)N2CCc3c2ccc(-c2cn(C)c4ncnc(N)c24)c3F)n1
# Summary of the method: as §1
# [3] = compound: Cc1cn(-c2cc(NC(=O)c3ccc(C)c(Nc4nccc(-c5cccnc5)n4)c3)cc(C(F)(F)F)c2)cn1 [nilotinib]
# Summary of the method: as §1
# [4] = compound: Cc1nc(Nc2n[nH]c3c2CN(C(=O)N[C@H](CN(C)C)c2ccccc2)C3(C)C)c2sccc2n1
# Summary of the method: as §1
# [5] = compound: Cc1nc(Nc2ncc(C(=O)Nc3c(C)cccc3Cl)s2)cc(N2CCN(CCO)CC2)n1 [dasatinib]
# Summary of the method: as §1
# [6] = compound: Cc1ncc(-c2ccnc(Nc3ccc(S(C)(=O)=O)cc3)n2)n1C(C)C
# Summary of the method: as §1
# [7] = compound: Cn1cc(-c2ccc3c(c2)CCN3C(=O)Cc2cccc(C(F)(F)F)c2)c2c(N)ncnc21
# Summary of the method: as §1
# [8] = compound: Cn1cc(-c2ccc3nnc(C(F)(F)c4ccc5ncccc5c4)n3n2)cn1
# Summary of the method: as §1
# [9] = compound: Cn1cncc1[C@@](N)(c1ccc(Cl)cc1)c1ccc2c(c1)c(-c1cccc(Cl)c1)cc(=O)n2C [tipifarnib]
# Summary of the method: as §1
# [10] = compound: FC(F)(F)c1ccc(/C=C/c2nc(COc3ccc(CCCCn4ccnn4)cc3)co2)cc1 [mubritinib]
# Summary of the method: as §1
# [11] = compound: NC(=O)Nc1cc(-c2cccc(F)c2)sc1C(=O)N[C@H]1CCCNC1
# Summary of the method: as §1
# [12] = compound: NC(=O)c1cnc(N[C@@H]2CCCC[C@@H]2N)nc1Nc1cccc(-n2nccn2)c1
# Summary of the method: as §1
# [13] = compound: NC1(c2ccc(-c3nc4ccn5c(=O)[nH]nc5c4cc3-c3ccccc3)cc2)CCC1
# Summary of the method: as §1
# [14] = compound: NCC(=O)Nc1ccc(-n2nc(C(F)(F)F)cc2-c2ccc3c(ccc4ccccc43)c2)cc1
# Summary of the method: as §1
# [15] = compound: Nc1ccccc1NC(=O)c1ccc(CNC(=O)OCc2cccnc2)cc1 [entinostat]
# Summary of the method: as §1
# [16] = compound: O=C(CCCCCCC(=O)Nc1ccccc1)NO [vorinostat]
# Summary of the method: as §1
# [17] = compound: O=C(CCCCCCNC(=O)c1cnc(N(c2ccccc2)c2ccccc2Cl)nc1)NO [citarinostat]
# Summary of the method: as §1
# [18] = compound: O=C(O)c1ccc2c(c1)nc(Nc1cccc(Cl)c1)c1ccncc12 [silmitasertib]
# Summary of the method: as §1
# [19] = compound: O=C1NC(=O)C(c2cnc3ccccn23)=C1c1cn2c3c(cc(F)cc13)CN(C(=O)N1CCCCC1)CC2
# Summary of the method: as §1
# [20] = compound: c1cc(OCCN2CCCCC2)cc(-c2n[nH]c3ccc(-c4nnc[nH]4)cc23)c1
# Summary of the method: as §1
Target,log2 fold change [1],log2 fold change [2],log2 fold change [3],log2 fold change [4],log2 fold change [5],log2 fold change [6],log2 fold change [7],log2 fold change [8],log2 fold change [9],log2 fold change [10],log2 fold change [11],log2 fold change [12],log2 fold change [13],log2 fold change [14],log2 fold change [15],log2 fold change [16],log2 fold change [17],log2 fold change [18],log2 fold change [19],log2 fold change [20]
C17orf75 (UniProt Q9HAS0),inactive: -0.005,inactive: 0.009,inactive: -0.125,inactive: -0.073,inactive: -0.015,inactive: -0.045,inactive: 0.003,inactive: -0.02,inactive: -0.015,inactive: 0.096,inactive: 0,inactive: -0.041,inactive: -0.053,inactive: -0.093,inactive: 0.035,inactive: 0.076,inactive: -0.021,inactive: 0.048,inactive: 0.04,inactive: -0.05
CAMKK2 (UniProt Q96RR4),inactive: 0.04,inactive: -0.144,inactive: -0.008,inactive: 0.226,inactive: 0,inactive: -0.14,inactive: -0.083,inactive: 0.102,inactive: -0.076,inactive: -0.024,inactive: -0.088,inactive: -0.389,inactive: -0.113,inactive: -0.047,inactive: 0.015,inactive: 0.323,inactive: -0.144,inactive: 0.128,inactive: -0.038,inactive: 0.036
C1orf50 (UniProt Q9BV19),inactive: -0.086,inactive: -0.067,inactive: 0.094,inactive: -0.058,inactive: -0.068,inactive: -0.067,inactive: 0.063,inactive: 0.11,inactive: 0.01,inactive: -0.01,inactive: 0.054,inactive: 0.058,inactive: -0.015,inactive: -0.098,inactive: -0.006,inactive: 0,inactive: -0.033,inactive: -0.008,inactive: -0.018,inactive: -0.028
CAD (UniProt P27708),inactive: 0.011,inactive: 0.06,inactive: -0.095,inactive: -0.008,active: -0.386,inactive: 0.081,inactive: -0.012,inactive: -0.097,inactive: -0.032,inactive: -0.006,inactive: 0.033,inactive: -0.014,inactive: -0.145,inactive: 0.008,inactive: -0.026,inactive: 0.088,inactive: 0.014,inactive: 0.003,inactive: 0.108,inactive: -0.141
CALR (UniProt P27797),inactive: -0.078,inactive: -0.028,inactive: 0.008,inactive: -0.014,inactive: 0.018,inactive: -0.035,inactive: -0.043,inactive: -0.004,inactive: 0.076,inactive: -0.031,inactive: 0.024,inactive: 0.002,inactive: 0.053,inactive: 0.001,inactive: 0.012,inactive: -0.006,inactive: -0.009,inactive: 0.017,inactive: -0.022,inactive: -0.065
CA1 (UniProt P00915),inactive: -0.017,inactive: -0.055,inactive: -0.004,inactive: -0.014,inactive: -0.007,inactive: 0.011,inactive: 0.029,inactive: -0.008,inactive: -0.011,inactive: 0.067,inactive: 0.01,inactive: 0.011,inactive: -0.013,inactive: 0.012,inactive: -0.011,active: 0.221,inactive: 0.074,inactive: 0.013,inactive: -0.014,inactive: -0.029
BUD23 isoform 3 (UniProt O43709),inactive: 0.111,inactive: 0.014,inactive: -0.027,inactive: 0.07,inactive: 0.013,inactive: 0.055,inactive: -0.008,inactive: -0.03,inactive: 0.017,inactive: 0.009,inactive: -0.023,inactive: -0.12,inactive: 0.065,inactive: -0.185,inactive: -0.049,inactive: 0.047,inactive: -0.083,inactive: 0.04,inactive: 0.124,inactive: -0.123
CALM2 (UniProt P0DP24),inactive: -0.025,inactive: 0.042,inactive: 0.033,inactive: 0.017,inactive: 0.031,inactive: 0,inactive: 0.018,inactive: -0.025,inactive: -0.022,inactive: 0.015,inactive: 0.08,inactive: 0.012,inactive: -0.028,inactive: 0.047,inactive: -0.01,inactive: -0.026,inactive: 0.086,inactive: -0.045,inactive: 0,inactive: 0.021
C16orf58 (UniProt Q96GQ5),inactive: -0.112,inactive: 0.052,inactive: -0.036,inactive: 0.029,inactive: -0.046,inactive: -0.01,inactive: 0.084,inactive: 0.012,inactive: 0.003,inactive: 0.021,inactive: -0.047,inactive: -0.05,inactive: -0.111,inactive: -0.08,inactive: 0.001,inactive: 0.026,inactive: 0.034,inactive: 0.032,inactive: -0.027,inactive: -0.017
CALB1 (UniProt P05937),inactive: -0.076,inactive: -0.018,inactive: -0.018,inactive: 0.025,inactive: 0.014,inactive: -0.015,inactive: 0.013,inactive: 0.046,inactive: 0,inactive: 0.01,inactive: -0.029,inactive: -0.014,inactive: -0.161,inactive: -0.041,inactive: 0.022,inactive: -0.027,inactive: 0.062,inactive: 0.006,inactive: 0.016,inactive: -0.035
C2orf49 (UniProt Q9BVC5),inactive: 0.033,inactive: 0,inactive: 0.017,inactive: 0.059,inactive: 0.143,inactive: 0.114,inactive: 0.014,inactive: -0.063,inactive: -0.024,inactive: -0.126,inactive: 0.388,inactive: 0.149,inactive: 0.02,inactive: 0.033,inactive: 0.041,inactive: 0.055,inactive: 0.006,inactive: 0.191,inactive: 0.297,inactive: -0.09
C8orf33 isoform 2 (UniProt Q9H7E9),inactive: 0.249,inactive: 0.02,inactive: 0.041,inactive: -0.058,inactive: 0.056,inactive: -0.052,inactive: -0.516,inactive: -0.232,inactive: 0.072,inactive: -0.336,inactive: 0.119,inactive: 0.218,inactive: 0.436,inactive: 0.298,inactive: -0.007,inactive: -0.025,inactive: -0.1,inactive: 0.423,inactive: 0.26,inactive: -0.144
C2orf69 (UniProt Q8N8R5),inactive: -0.005,inactive: -0.036,inactive: -0.085,inactive: 0.027,inactive: 0.014,inactive: -0.004,inactive: -0.041,inactive: -0.089,inactive: -0.034,inactive: 0.051,inactive: 0.042,inactive: -0.085,inactive: -0.027,inactive: 0.023,inactive: -0.055,inactive: 0.056,inactive: 0.109,inactive: -0.031,inactive: 0.008,inactive: -0.028
CALU isoform 3 (UniProt O43852),inactive: -0.059,inactive: -0.055,inactive: 0.005,inactive: 0.003,inactive: 0.065,inactive: -0.037,inactive: 0.004,inactive: -0.037,inactive: 0.087,inactive: 0.025,inactive: 0.002,inactive: 0.001,inactive: 0.022,inactive: 0.005,inactive: -0.014,inactive: -0.038,inactive: -0.022,inactive: 0.013,inactive: -0.038,inactive: -0.015
BST2 (UniProt Q10589),inactive: 0.061,inactive: -0.009,inactive: 0.048,inactive: -0.059,inactive: -0.016,inactive: -0.096,inactive: -0.052,inactive: 0.029,inactive: 0.036,inactive: -0.015,inactive: 0.031,inactive: 0.02,inactive: 0.003,inactive: 0.132,inactive: 0.03,inactive: -0.026,inactive: -0.058,inactive: 0.009,inactive: 0.112,inactive: -0.092
CAMK2G isoform 6 (UniProt Q13555),inactive: 0.064,inactive: -0.148,inactive: 0.002,active: 0.642,inactive: -0.11,inactive: 0.083,inactive: 0.01,inactive: -0.073,inactive: -0.025,inactive: -0.008,inactive: -0.306,inactive: -0.033,inactive: 0.038,inactive: 0.057,inactive: 0.119,inactive: 0.119,inactive: -0.02,inactive: 0.158,inactive: 0.177,inactive: -0.053

# Copied from the results shown (2 entries):
Target,log2 fold change [1],log2 fold change [2],log2 fold change [3],log2 fold change [4],log2 fold change [5],log2 fold change [6],log2 fold change [7],log2 fold change [8],log2 fold change [9],log2 fold change [10],log2 fold change [11],log2 fold change [12],log2 fold change [13],log2 fold change [14],log2 fold change [15],log2 fold change [16],log2 fold change [17],log2 fold change [18],log2 fold change [19],log2 fold change [20]
C2orf49 (UniProt Q9BVC5),inactive: 0.033,inactive: 0,inactive: 0.017,inactive: 0.059,inactive: 0.143,inactive: 0.114,inactive: 0.014,inactive: -0.063,inactive: -0.024,inactive: -0.126,inactive: 0.388,inactive: 0.149,inactive: 0.02,inactive: 0.033,inactive: 0.041,inactive: 0.055,inactive: 0.006,inactive: 0.191,inactive: 0.297,inactive: -0.09
C8orf33 isoform 2 (UniProt Q9H7E9),inactive: 0.249,inactive: 0.02,inactive: 0.041,inactive: -0.058,inactive: 0.056,inactive: -0.052,inactive: -0.516,inactive: -0.232,inactive: 0.072,inactive: -0.336,inactive: 0.119,inactive: 0.218,inactive: 0.436,inactive: 0.298,inactive: -0.007,inactive: -0.025,inactive: -0.1,inactive: 0.423,inactive: 0.26,inactive: -0.144

# Reference: the supplement of paper PMC10849652
